Reference: patent publication US20150166662A1

Experiments:
insulin [1] = assay: polyreactivity ELISA
insulin [2] = assay: ELISA, antibody titrated on insulin
[3] = target: keyhole limpet hemocyanin (KLH); assay: polyreactivity ELISA
[4] = target: keyhole limpet hemocyanin (KLH); assay: ELISA, antibody titrated on KLH

binding (insulin [1]): no binding
binding (insulin [2]): no binding (tested: 10 ug/mL)
B1: ibalizumab (wild type) (antibody, human IgG1, kappa, V domains shown)
VH: QVQLQQSGPEVVKPGASVKMSCKASGYTFTSYVIHWVRQKPGQGLDWIGYINPYNDGTDYDEKFKGKATLTSDTSTSTAYMELSSLRSEDTAVYYCAREKDNYATGAWFAYWGQGTLVTVSS
VL: DIVMTQSPDSLAVSLGERVTMNCKSSQSLLYSTNQKNYLAWYQQKPGQSPKLLIYWASTRESGVPDRFSGSGSGTDFTLTISSVQAEDVAVYYCQQYYSYRTFGGGTKLEIKR

binding (insulin [1]): no binding
binding [3]: no binding
binding [4]: no binding (tested: 10 ug/mL)
binding (insulin [2]): no binding (tested: 10 ug/mL)
B2: LM52, glycan-modified anti-CD4 IgG1 antibody with an N-linked glycan at light chain position 52 (antibody, V domains shown)
VH: B1 VH
VL: B1 VL with S58N, T59S, R60T

Positions count from the first letter of the chain named. Results are given in words; binding and its absence hold for the method and conditions named. Each block holds one binder with its values, some of them ahead of it.
